No constants are given. Whether binding was seen depends on the method and setting. Binding seen in cells or lysates may run through a third protein. Some binding calls cover weakened binding; strength is not graded here.

Amino acid sequences for entries named in this document (tags omitted).
UniProt Q92793: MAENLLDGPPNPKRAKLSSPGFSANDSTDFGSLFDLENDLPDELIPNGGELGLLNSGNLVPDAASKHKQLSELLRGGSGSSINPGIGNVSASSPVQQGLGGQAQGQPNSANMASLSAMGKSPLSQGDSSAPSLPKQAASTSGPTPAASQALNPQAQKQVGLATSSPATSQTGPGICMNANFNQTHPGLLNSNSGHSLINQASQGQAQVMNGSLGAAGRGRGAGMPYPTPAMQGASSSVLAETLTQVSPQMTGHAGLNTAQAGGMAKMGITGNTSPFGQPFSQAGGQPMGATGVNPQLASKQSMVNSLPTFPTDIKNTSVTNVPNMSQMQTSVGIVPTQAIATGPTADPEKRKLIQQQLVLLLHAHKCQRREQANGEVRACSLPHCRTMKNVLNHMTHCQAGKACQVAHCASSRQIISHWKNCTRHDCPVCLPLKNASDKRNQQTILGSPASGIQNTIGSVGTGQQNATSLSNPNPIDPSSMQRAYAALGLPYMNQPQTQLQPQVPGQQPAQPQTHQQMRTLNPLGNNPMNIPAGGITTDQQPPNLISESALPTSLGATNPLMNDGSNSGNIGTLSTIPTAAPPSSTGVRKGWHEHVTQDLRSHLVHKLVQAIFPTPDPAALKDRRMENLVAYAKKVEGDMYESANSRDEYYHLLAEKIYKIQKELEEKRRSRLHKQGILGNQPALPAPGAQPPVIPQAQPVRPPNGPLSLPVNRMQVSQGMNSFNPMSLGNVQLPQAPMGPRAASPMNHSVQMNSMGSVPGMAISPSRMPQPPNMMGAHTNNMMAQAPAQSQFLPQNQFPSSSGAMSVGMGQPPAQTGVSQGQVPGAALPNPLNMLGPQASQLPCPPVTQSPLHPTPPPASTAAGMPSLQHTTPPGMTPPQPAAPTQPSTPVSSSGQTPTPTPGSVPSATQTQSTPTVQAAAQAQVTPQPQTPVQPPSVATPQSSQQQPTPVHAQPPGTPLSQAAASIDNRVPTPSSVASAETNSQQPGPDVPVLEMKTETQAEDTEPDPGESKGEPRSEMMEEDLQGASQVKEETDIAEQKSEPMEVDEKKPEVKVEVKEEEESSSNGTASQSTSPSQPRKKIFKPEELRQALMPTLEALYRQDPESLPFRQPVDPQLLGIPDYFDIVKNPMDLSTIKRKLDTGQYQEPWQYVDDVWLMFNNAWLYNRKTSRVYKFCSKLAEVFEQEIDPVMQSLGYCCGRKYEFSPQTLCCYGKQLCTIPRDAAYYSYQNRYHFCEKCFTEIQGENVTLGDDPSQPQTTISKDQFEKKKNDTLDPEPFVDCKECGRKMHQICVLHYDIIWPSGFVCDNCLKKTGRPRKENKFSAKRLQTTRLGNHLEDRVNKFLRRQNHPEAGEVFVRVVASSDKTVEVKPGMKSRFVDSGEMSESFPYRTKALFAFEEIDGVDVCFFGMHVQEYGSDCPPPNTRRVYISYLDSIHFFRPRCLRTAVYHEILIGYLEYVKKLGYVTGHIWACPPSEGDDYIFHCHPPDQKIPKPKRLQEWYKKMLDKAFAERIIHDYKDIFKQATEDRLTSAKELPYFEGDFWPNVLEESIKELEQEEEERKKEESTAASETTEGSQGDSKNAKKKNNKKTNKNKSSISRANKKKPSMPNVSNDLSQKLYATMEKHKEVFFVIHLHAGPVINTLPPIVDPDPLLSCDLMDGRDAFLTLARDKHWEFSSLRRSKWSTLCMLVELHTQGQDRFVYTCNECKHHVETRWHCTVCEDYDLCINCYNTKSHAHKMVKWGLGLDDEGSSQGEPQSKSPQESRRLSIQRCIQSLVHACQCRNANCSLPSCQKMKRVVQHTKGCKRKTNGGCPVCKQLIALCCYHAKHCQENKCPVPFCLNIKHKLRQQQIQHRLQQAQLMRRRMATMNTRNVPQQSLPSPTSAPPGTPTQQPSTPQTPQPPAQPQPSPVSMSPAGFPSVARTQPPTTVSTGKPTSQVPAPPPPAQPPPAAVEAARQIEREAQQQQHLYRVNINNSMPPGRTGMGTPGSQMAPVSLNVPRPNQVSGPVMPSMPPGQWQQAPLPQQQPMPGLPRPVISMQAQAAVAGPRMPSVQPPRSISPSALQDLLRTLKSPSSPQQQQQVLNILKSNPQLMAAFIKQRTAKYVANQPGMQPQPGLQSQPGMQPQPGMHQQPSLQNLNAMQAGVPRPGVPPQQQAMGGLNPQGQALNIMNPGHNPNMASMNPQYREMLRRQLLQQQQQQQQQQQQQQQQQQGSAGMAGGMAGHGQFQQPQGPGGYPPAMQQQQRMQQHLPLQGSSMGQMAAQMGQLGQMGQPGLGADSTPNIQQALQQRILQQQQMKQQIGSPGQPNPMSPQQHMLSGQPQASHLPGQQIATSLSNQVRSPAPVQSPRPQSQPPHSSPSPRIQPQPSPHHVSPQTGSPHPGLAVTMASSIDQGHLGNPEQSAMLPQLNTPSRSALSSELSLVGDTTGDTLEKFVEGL

The target of the experiment is T1, CCCTC-binding factor (CTCF) (UniProt P49711).
T1 sequence: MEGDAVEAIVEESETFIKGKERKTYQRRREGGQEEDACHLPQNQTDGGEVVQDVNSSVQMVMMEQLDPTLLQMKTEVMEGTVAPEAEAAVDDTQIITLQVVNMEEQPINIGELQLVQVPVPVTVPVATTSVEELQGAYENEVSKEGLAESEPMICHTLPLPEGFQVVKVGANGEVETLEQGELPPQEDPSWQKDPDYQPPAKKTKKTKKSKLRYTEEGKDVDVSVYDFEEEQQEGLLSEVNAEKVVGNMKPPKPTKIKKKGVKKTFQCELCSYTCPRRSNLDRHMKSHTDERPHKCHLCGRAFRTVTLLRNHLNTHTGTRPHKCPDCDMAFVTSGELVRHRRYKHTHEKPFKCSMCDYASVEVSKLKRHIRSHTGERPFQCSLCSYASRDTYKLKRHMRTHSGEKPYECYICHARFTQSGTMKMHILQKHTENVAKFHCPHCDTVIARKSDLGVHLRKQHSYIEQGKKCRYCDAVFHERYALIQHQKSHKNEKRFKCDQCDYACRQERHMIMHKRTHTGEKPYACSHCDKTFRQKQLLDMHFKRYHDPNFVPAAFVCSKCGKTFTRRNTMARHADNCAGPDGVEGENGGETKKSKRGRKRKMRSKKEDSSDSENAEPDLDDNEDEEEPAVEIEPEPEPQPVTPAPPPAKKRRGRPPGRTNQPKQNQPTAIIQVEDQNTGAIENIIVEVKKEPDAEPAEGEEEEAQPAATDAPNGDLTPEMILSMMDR
Put plainly: co-IP; endogenous proteins; lysis buffer 20 mM Tris-HCl pH 7.5, 1% Triton X-100, 150 mM NaCl, 10% glycerol; antibody on Protein A/G beads, 4 °C; blotted with anti-CTCF and anti-CBP; cell line not stated.

As for “CREB-binding protein (CBP) (from UniProt Q92793 1-2442) (enzyme)”, the binding result is on record as “binds”.

Source of the values: publication PMC9482892.
